The text below walks through data of publication PMC11190766.

Sequences of proteins named here, by UniProt entry; tags and fusion partners are left off. A change or cut given only in a name is not applied to a line headed by its entry. A line that says so, or that is headed by a name, gives the form on record, which may keep a tag or linker. Residues count along the entry.
Thioredoxin domain-containing protein 12 (TXNDC12), full-length wild type, overexpressed (O95881, residues 27-172): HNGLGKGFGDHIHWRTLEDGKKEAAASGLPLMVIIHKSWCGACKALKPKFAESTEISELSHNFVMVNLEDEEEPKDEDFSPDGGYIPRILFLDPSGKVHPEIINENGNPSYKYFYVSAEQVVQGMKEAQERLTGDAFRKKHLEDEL
TXNDC12 mutant construct (both Cys66 and Cys69 replaced by serine, CS) (O95881, form named): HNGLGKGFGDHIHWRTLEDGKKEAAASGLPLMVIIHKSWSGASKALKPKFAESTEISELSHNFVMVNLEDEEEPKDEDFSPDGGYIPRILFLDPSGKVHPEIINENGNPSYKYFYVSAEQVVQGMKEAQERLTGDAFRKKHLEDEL

These are yes or no findings as the source states them, for the method shown. In cells and extracts the contact can be indirect. Some entries that bind do so weakly or less than the wild type.

Assay [1] has as its target T1, γ-glutamyl transpeptidase 7 (GGT7), overexpressed (UniProt Q9UJ14).
T1 sequence: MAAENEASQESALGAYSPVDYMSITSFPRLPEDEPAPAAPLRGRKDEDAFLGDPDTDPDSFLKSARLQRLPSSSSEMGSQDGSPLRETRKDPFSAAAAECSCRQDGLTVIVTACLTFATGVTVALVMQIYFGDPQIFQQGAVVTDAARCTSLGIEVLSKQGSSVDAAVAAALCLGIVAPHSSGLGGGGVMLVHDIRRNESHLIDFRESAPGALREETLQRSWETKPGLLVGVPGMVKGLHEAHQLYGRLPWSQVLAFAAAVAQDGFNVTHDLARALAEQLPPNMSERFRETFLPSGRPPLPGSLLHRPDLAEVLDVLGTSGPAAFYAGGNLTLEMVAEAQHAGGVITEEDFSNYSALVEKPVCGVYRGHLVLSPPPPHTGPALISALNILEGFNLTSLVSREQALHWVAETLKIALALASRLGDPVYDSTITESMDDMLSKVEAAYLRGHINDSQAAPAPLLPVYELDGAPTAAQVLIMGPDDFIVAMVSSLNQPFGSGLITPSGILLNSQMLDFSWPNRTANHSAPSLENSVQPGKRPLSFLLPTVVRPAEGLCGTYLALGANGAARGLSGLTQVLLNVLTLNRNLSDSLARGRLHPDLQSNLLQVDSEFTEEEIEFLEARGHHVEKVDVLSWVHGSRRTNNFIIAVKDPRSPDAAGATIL
Put plainly: co-IP; MIA PaCa-2 cells overexpressing GGT7, lysed 48 h after transfection; IP with TXNDC12 or His antibody (5 μg) on Protein A+G magnetic beads, 4 °C 12-18 h, IgG control; Western blot.

For assay [2], the target named is T1, γ-glutamyl transpeptidase 7 (GGT7), overexpressed. The experiment in a line: co-IP; MIA PaCa-2 cells transfected with GGT7 and wild-type TXNDC12 (WT) or cysteine-mutated TXNDC12 (CS); IP with anti-His antibody on Protein A+G magnetic beads; Western blot.
For assay [3] the target is unchanged. The experiment in a line: co-IP; HEK293 cells transfected with GGT7 and TXNDC12 (full-length or fragments), lysed 48 h after transfection; IP with His or TXNDC12 antibody (fragments: anti-His) on Protein A+G magnetic beads, 4 °C 12-18 h; Western blot. On the technique in general: A western blot detects proteins with antibodies after separation by electrophoresis.

With “Thioredoxin domain-containing protein 12 (TXNDC12), endogenous in MIA PaCa-2 (from UniProt O95881 27-172)”, the binding result in assay [1] is on record as “binds”. Regarding “TXNDC12 mutant construct (both Cys66 and Cys69 replaced by serine, CS) (from UniProt O95881 27-172)”, the binding result in assay [2] was “no binding”.

With “Thioredoxin domain-containing protein 12 (TXNDC12), full-length wild type, overexpressed (from UniProt O95881 27-172)”, the binding entry in assay [3] and in assay [2] was “binds” each time.
